# Library screening results

Amino acid sequences for entries named in this document (tags omitted).
UniProt E9BF75, entry or part of it: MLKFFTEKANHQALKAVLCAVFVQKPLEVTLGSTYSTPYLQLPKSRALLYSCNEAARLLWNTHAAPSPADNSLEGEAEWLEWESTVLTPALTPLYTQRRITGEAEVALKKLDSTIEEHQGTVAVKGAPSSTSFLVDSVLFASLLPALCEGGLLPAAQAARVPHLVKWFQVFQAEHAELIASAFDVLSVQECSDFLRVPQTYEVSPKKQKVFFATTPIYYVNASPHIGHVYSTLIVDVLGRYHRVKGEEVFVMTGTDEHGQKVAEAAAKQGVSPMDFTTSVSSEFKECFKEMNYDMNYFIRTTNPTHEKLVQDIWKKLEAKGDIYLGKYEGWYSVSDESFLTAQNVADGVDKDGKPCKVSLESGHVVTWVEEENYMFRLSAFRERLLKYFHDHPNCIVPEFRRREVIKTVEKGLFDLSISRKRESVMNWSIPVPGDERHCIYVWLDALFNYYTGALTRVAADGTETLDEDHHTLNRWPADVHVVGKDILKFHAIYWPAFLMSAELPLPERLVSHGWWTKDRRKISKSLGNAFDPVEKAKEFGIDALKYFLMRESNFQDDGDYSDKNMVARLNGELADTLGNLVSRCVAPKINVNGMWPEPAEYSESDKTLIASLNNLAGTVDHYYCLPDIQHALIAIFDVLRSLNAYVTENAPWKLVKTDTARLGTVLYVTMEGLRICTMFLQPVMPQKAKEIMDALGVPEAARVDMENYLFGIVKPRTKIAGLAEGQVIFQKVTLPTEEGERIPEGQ

All values are in %. The record does not define 0% and 100%; most values in the screen are far below 50% and negative numbers occur (in some assays of this library far below -100). The compounds are a random part of those screened.

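Primary screen of methionyl-tRNA synthetase; the read-out is not stated. Target: Methionyl-tRNA synthetase (putative), Leishmania donovani (UniProt E9BF75). The test concentration is not given. The values are filed as inhibition. About 68,000 compounds were tested under these conditions; 0.035% (about 24) showed 50% or more at least once.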

SMILES | inhibition
CO[C@@H]1CO[C@@]2(CCCN(Cc3nc(C)cs3)C2)C1 | 11.66
N#CCCN(CCC#N)Cc1ccc(Br)c2cccnc12 | 12.63
Cn1ccnc1C(=O)N1CCOC(Cc2ccccc2Cl)C1 (configuration not stated) | 5.788
CC(Cn1cccn1)NC(=O)N1CCC(NS(C)(=O)=O)CC1 (configuration not stated) | 8.014
CCOCCn1nc(C)cc1C(=O)N1CC[C@](C)(O)C(C)(C)C1 | 12.71
CC1CN(c2ccc(CNC(=O)NCCn3ccnc3)cn2)CCO1 (configuration not stated) | 7.652
O=C(NCc1nnc2n1CCC2)c1ccc(Br)s1 | 13.97
COc1cc(NC(=O)c2ccc(Cl)cc2F)c(C(=O)N(C)C)cc1OC | 14.32
O=C(O)c1cnc(-c2cccc3c2CCNC3)c(Cl)c1 | 11.23
C=C(C)COc1cccc(C(=O)NCCCc2nnn[nH]2)c1 | 13.84
CC(C(=O)NS(=O)(=O)Cc1cc(-c2ccccc2)no1)C1CC1 (configuration not stated) | 14.52
CS(=O)(=O)c1cccc(S(=O)(=O)NCCCN2CCNC(=O)C2)c1 | 19.93
Cc1cccc(CNC(=O)CC2CCN(S(C)(=O)=O)CC2)n1 | 9.206
Cc1nc(-c2ccncc2)ncc1C(C)NC(=O)CN1CCCC1=O (configuration not stated) | 5.115
Cn1cnnc1C1CCN(C(=O)c2cc3c(s2)CCCC3)CC1 | 2.793
Cc1noc([C@@H]2C[C@H]3OCC[C@H]3N(Cc3sccc3C)C2)n1 | 10.48
Cc1nc(C2CCCN(C(=O)c3c(C)nn4cccnc34)C2)no1 (configuration not stated) | 3.614
O=C(N[C@H]1COC[C@@H]1N1CCCC1)c1csc(Cc2ccccc2)n1 | 24.76
Cc1cncc(C(=O)N[C@@H]2CC[C@@H](N3CCOCC3)[C@@H]2O)c1 | 14.12
CN1CCN(CC(NCc2ccc(F)c(F)c2)c2ccccc2)CC1 (configuration not stated) | 10.63
Cc1ccc(OCC(O)CN2CCC(Cn3cccn3)CC2)cc1 (configuration not stated) | 17.77
COc1ccc(S(=O)(=O)N2CCc3ccc(Cl)cc32)cc1C(=O)O | 10.12
Cc1nn(C)c(C)c1CC(=O)NCc1cccnc1N1CCOCC1 | 18.4
c1coc(CN2CC[C@@H]3O[C@@H](COCc4ccncc4)CC[C@@H]32)c1 | 15.95
O=C(CSC1CCc2ccccc2NC1=O)NC1CC1 (configuration not stated) | 8.869
CNc1snc(C)c1C(=O)N1CCCC(n2ccnc2)C1 (configuration not stated) | 18.21
Cc1ccc(N2CCC(NCc3cnc(C4CCC4)s3)CC2)nc1 | 4.032
O=C(O)c1ccn(COc2c(Cl)cccc2Cl)n1 | 11.61
CC(NC(=O)NCCNc1cccc(F)c1C#N)c1nccs1 (configuration not stated) | 9.774
CN(Cc1ccco1)[C@@H]1CN(Cc2cccnc2)C[C@@H]2CCCO[C@@H]21 | 6.536
COc1ccc(C(=O)C2CCCN(CCCn3cccn3)C2)c(OC)c1 (configuration not stated) | 5.926
COc1ccnc(NC(Cc2ccccc2)C(N)=O)n1 (configuration not stated) | 1.083
CCc1nccn1C1CCCN(C(=O)c2cc(C3CC3)on2)C1 (configuration not stated) | 12.53
Cc1nc(N2CCCC2)nc2c1CCN(C(=O)C(C)C)CC2 | 19.31
CCc1cnc(C)nc1NCCc1nc(N)cc(O)n1 | 7.711
CC(C)N(C)Cc1cnc2n1CCN(C(=O)Cc1cccs1)C2C (configuration not stated) | -7.769
CC1CCCN(C(=O)c2ncncc2Cl)C1 (configuration not stated) | 4.696
COCCCNc1ncc(-c2cccc(F)c2)c(-c2nccn2C)n1 | 11.11
CN1CCCC2(CCN(C(=O)c3ccncc3)C2)C1 (configuration not stated) | 8
OCCOCCN1CCCC1c1cccc(Cl)c1 (configuration not stated) | -1.047
CNS(=O)(=O)Cc1cccc(CNc2ccc(C#N)cn2)c1 | 18.39
O=C(CNC(=O)c1c(F)cccc1Cl)Nc1ccc(F)cn1 | 12.39
CN1CCc2c(C#N)c(NCCCN3CCOCC3)n3cnnc3c2C1 | 16.9
COc1ccccc1C1(CNc2cn[nH]c(=O)c2Cl)CCOCC1 | 15.32
NCC(=O)N1CCCC1c1ccc(C(=O)NCc2ccoc2)s1 (configuration not stated) | 12.8
C/C(=C\c1ccccc1)CN1CCCC(c2nnc3n2CCNCC3)C1 (configuration not stated) | 7.302
COc1cccc(CNC(=O)c2nc3c(o2)CN(C(=O)N(C)C)C3)c1 | -61.59
Cc1nc(C(Cc2ccsc2)NC(=O)CCN2CCOCC2)sc1C (configuration not stated) | 17.81
CN(C)c1ccc(CNC(=O)Nc2ccc(S(=O)(=O)C(F)F)cc2)cc1 | 13.03
O=C(NCCOc1ccc(Cl)cn1)NCCc1ccccn1 | 7.581

The first 5 entries again:

| SMILES | inhibition |
|---|---|
| `CO[C@@H]1CO[C@@]2(CCCN(Cc3nc(C)cs3)C2)C1` | 11.66 |
| `N#CCCN(CCC#N)Cc1ccc(Br)c2cccnc12` | 12.63 |
| `Cn1ccnc1C(=O)N1CCOC(Cc2ccccc2Cl)C1` (configuration not stated) | 5.788 |
| `CC(Cn1cccn1)NC(=O)N1CCC(NS(C)(=O)=O)CC1` (configuration not stated) | 8.014 |
| `CCOCCn1nc(C)cc1C(=O)N1CC[C@](C)(O)C(C)(C)C1` | 12.71 |

Measurements from “University of Dundee, Small-Polar-MMV Screening Library” (2021), ChEMBL document CHEMBL3988442.